Some of the results follow.
Compound: Cn1cc(-c2ccc3c(c2)CCN3C(=O)Cc2cccc(C(F)(F)F)c2)c2c(N)ncnc21
Assay: log2 fold change, soluble protein after heating vs DMSO (PISA); higher = thermal stabilisation; K562 cells, 10 uM, 30 min; active = over 0.2 and 3.5 SD of the protein, either way, in both replicates (recomputed)
Procedure, shortened: (§1)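 Quantification of soluble protein used TMTpro 16plex LC-MS/MS, with channel sums equalised. Samples were the supernatant after 21,000xg for 90 min of pooled aliquots from K562 cells (2×10^6 cells/mL) treated with 10 μM compound for 30 min, heated for 3 min over 48°C-58°C, and extracted in PBS with 0.5% NP-40 at 4°C. Values, from duplicates, describe thermal stability against control samples on a log2 fold-change scale.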

Sequences of proteins named here, by UniProt entry; tags and fusion partners are left off. A change or cut given only in a name is not applied to a line headed by its entry.
UniProt Q5HYJ3: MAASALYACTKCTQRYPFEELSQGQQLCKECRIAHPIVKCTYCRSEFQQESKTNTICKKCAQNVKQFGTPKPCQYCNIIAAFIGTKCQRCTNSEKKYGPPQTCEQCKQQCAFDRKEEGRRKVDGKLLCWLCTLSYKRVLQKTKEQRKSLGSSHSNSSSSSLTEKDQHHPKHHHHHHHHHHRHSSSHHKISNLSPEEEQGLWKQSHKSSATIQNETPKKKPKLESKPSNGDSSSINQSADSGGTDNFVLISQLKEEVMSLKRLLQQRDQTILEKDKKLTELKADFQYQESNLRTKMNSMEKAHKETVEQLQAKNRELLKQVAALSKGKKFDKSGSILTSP
UniProt Q6UN15: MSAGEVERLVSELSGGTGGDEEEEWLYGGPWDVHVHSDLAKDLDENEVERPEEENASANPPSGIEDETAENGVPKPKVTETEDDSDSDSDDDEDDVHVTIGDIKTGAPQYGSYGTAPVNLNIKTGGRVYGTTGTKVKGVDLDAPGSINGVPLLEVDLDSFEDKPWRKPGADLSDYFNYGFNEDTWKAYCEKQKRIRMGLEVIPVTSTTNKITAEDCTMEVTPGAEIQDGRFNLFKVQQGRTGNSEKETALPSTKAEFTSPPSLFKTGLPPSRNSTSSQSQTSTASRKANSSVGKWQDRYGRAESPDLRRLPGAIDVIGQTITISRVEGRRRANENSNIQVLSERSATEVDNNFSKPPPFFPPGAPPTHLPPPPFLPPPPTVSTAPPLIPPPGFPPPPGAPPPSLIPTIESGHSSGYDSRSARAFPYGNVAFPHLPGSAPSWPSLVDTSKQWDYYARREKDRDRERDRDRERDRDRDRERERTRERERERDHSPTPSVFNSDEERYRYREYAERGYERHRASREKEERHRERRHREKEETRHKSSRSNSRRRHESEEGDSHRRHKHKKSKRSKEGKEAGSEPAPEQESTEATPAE
UniProt Q658Y4: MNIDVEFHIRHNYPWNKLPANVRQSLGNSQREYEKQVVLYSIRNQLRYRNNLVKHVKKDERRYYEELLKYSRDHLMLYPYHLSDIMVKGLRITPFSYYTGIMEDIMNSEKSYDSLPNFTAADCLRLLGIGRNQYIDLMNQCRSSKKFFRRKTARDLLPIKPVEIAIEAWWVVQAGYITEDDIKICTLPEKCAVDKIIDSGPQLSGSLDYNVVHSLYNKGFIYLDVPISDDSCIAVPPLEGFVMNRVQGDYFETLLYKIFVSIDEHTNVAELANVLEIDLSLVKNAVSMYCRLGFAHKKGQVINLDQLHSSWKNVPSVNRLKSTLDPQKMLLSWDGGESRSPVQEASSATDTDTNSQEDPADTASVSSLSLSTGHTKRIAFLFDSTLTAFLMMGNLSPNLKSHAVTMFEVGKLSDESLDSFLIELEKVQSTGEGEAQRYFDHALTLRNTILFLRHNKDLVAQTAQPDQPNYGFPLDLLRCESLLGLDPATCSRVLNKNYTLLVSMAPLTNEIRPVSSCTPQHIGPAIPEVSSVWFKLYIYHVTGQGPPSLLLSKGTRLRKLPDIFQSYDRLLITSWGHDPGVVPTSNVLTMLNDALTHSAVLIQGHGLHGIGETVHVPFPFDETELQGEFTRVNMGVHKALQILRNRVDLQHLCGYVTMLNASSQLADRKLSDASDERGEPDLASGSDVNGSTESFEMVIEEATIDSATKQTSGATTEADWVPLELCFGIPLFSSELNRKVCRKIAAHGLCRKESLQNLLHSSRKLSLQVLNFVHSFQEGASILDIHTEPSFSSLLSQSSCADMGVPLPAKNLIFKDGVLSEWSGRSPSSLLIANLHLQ
UniProt Q5T1M5: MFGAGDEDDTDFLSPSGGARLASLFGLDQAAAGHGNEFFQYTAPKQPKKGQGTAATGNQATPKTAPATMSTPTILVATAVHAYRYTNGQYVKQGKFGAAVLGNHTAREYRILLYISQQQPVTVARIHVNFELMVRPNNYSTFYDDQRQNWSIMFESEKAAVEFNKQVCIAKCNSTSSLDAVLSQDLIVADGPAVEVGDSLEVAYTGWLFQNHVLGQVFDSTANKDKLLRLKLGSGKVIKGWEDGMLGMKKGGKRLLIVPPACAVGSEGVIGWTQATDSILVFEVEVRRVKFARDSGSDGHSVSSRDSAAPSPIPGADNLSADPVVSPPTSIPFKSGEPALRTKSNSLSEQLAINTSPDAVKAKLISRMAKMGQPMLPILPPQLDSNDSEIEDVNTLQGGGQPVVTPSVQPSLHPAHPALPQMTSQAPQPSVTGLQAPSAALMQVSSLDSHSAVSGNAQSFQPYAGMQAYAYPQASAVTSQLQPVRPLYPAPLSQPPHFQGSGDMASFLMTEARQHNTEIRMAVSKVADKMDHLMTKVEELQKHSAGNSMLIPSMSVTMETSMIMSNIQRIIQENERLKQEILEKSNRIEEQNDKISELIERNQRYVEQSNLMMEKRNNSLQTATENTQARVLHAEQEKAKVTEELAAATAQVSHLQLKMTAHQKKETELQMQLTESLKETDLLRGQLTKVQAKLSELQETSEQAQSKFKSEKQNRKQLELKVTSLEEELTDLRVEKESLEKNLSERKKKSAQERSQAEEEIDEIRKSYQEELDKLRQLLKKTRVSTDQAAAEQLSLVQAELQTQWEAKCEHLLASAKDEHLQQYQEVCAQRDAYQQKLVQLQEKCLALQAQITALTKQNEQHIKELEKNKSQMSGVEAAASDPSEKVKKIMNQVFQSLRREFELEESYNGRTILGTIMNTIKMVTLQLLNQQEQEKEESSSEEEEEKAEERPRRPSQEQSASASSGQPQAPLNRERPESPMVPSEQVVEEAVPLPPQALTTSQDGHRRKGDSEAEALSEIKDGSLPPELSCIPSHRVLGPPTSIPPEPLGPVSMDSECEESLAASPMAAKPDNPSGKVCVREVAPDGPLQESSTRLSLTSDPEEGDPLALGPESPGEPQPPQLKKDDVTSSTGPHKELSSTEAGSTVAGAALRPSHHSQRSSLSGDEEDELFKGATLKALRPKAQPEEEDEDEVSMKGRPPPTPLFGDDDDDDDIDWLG
UniProt P37268: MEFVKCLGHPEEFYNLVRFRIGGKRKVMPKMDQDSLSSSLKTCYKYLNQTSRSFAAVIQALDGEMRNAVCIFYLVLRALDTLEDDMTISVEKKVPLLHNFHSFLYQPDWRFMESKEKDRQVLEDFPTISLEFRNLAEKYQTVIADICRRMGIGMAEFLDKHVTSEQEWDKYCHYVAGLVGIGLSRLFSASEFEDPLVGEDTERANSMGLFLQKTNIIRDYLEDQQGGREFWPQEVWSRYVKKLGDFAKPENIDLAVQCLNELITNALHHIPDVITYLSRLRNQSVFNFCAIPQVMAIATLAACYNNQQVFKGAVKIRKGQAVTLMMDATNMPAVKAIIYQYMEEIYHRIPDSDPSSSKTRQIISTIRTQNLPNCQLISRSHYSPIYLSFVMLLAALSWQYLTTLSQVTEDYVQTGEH
UniProt Q96IG2: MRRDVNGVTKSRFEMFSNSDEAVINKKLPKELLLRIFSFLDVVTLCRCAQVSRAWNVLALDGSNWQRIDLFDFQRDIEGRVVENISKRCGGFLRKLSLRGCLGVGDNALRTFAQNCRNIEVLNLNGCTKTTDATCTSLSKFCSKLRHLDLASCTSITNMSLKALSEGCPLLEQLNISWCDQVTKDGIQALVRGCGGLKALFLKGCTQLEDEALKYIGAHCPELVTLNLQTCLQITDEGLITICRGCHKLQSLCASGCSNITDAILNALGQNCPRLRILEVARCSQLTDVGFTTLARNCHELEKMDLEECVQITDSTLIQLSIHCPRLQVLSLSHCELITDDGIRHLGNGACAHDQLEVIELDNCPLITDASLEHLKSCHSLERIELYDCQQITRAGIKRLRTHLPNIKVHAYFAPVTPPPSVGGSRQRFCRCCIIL
UniProt Q9HA64: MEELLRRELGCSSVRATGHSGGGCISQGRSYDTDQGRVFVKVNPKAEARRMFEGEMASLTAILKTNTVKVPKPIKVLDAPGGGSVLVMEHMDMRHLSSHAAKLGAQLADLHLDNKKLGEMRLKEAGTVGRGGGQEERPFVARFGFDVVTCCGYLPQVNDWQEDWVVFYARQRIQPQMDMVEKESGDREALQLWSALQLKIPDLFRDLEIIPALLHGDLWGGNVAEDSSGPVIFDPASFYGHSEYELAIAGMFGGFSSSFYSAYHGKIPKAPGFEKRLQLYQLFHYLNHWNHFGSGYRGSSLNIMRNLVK
UniProt Q9Y5Y0: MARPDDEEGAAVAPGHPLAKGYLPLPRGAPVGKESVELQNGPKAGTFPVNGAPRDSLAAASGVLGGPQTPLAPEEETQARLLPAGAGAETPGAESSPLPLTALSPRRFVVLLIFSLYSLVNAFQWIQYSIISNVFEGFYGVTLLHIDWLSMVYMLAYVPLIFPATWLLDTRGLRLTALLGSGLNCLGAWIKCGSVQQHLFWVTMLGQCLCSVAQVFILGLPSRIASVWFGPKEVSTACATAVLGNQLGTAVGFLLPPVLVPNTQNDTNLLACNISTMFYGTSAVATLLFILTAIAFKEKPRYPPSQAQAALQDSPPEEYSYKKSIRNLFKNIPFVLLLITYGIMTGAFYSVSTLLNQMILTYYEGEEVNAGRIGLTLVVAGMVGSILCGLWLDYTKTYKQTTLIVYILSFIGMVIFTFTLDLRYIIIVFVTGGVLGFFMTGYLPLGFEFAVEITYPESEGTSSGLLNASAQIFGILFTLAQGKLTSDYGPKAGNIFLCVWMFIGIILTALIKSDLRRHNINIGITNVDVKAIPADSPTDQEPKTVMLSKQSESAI
UniProt O95684: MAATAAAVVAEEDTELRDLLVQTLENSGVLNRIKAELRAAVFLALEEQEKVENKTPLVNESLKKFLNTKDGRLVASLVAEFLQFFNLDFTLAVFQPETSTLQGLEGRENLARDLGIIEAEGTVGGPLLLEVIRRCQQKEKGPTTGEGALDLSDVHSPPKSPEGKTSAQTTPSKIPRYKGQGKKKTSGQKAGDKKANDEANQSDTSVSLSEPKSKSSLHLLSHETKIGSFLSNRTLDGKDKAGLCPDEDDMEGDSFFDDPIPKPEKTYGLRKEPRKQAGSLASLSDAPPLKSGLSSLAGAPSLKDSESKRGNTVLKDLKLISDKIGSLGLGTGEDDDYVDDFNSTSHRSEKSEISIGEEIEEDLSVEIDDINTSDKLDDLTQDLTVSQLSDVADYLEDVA
UniProt Q92913: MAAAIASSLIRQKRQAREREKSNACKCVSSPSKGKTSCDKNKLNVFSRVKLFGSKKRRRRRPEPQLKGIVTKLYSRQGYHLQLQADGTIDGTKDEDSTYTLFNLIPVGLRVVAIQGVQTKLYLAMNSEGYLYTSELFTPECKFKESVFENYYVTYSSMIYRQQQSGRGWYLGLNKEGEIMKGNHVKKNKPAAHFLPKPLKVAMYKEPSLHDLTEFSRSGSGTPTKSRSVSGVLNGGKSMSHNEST
UniProt P26885: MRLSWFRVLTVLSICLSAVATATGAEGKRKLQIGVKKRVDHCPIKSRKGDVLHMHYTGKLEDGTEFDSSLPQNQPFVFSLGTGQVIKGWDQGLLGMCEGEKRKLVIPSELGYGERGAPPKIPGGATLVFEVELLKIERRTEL
UniProt Q9Y421: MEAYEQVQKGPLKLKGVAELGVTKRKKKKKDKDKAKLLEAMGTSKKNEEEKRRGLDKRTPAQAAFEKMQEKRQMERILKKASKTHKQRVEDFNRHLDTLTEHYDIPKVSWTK
UniProt Q9NSD9: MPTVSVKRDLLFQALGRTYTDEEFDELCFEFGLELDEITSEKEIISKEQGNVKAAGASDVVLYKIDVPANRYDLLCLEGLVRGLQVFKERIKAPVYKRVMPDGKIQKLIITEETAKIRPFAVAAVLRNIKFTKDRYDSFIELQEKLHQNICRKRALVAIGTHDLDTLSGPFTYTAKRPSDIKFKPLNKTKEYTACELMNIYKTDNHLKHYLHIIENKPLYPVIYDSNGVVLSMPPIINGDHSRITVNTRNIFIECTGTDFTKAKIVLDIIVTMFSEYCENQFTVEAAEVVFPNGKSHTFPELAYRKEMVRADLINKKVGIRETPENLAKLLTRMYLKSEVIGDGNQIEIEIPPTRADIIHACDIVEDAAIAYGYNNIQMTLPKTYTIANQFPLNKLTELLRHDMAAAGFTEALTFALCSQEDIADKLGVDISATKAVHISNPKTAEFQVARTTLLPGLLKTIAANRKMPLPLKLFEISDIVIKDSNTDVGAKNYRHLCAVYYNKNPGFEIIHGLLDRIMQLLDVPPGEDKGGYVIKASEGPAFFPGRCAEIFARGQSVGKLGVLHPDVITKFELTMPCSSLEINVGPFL
UniProt Q9Y3D6: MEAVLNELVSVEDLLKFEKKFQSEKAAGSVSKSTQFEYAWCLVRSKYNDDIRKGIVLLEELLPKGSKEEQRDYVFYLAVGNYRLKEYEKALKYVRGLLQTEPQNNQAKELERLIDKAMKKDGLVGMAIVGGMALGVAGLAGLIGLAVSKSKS
UniProt Q92520: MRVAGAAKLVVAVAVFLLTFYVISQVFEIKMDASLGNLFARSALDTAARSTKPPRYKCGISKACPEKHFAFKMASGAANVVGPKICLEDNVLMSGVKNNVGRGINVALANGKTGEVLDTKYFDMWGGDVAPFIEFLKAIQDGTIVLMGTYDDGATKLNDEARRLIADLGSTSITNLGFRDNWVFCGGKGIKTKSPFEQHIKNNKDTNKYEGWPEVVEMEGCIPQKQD

log2 fold change, inactive:
FBXO5 (UniProt Q9UKT4) 0.047
FEM1B (UniProt Q9UK73) -0.015
FKBP7 (UniProt Q9Y680) 0.071
FAM76B (UniProt Q5HYJ3) -0.026
FIP1L1 (UniProt Q6UN15) -0.104
FBXO22 (UniProt Q8NEZ5) 0.047
FAM91A1 (UniProt Q658Y4) 0.021
FKBP15 (UniProt Q5T1M5) -0.044
FKBP3 (UniProt Q00688) -0.006
FBXO7 (UniProt Q9Y3I1) 0.065
FDX2 (UniProt Q6P4F2) 0.123
FDFT1 (UniProt P37268) 0.111
FBXL20 (UniProt Q96IG2) 0.027
FKBPL (UniProt Q9UIM3) 0.039
FARS2 (UniProt O95363) 0.039
FBXO30 (UniProt Q8TB52) 0.076
FHL2 (UniProt Q14192) -0.053
FECH isoform 2 (UniProt P22830) 0.549
FAM50A (UniProt Q14320) -0.021
FBL (UniProt P22087) -0.337
FBLL1 (UniProt A6NHQ2) -0.479
FBXO3 (UniProt Q9UK99) 0.041
FN3KRP (UniProt Q9HA64) 0
FLVCR1 (UniProt Q9Y5Y0) 0.027
FAM8A1 (UniProt Q9UBU6) -0.072
FGFR1OP (UniProt O95684) -0.014
FKBP14 (UniProt Q9NWM8) 0.009
FGF13 isoform 3 (UniProt Q92913) 0.024
FBXO6 (UniProt Q9NRD1) 0.047
FKBP2 (UniProt P26885) 0.016
FAM32A (UniProt Q9Y421) -0.116
FDPS (UniProt P14324) 0.209
FNBP4 isoform 2 (UniProt Q8N3X1) 0.016
FAM98B (UniProt Q52LJ0) -0.074
FARSB (UniProt Q9NSD9) 0.017
FAM98A (UniProt Q8NCA5) -0.119
FAU (UniProt P62861) -0.192
FIS1 (UniProt Q9Y3D6) 0.111
FAM3C (UniProt Q92520) -0.019

Compound: Cn1cc(-c2ccc3nnc(C(F)(F)c4ccc5ncccc5c4)n3n2)cn1
Assay: as above
Procedure, shortened: as §1

log2 fold change, inactive:
FBXO5 (UniProt Q9UKT4) -0.134
FEM1B (UniProt Q9UK73) -0.034
FKBP7 (UniProt Q9Y680) 0.012
FAM76B (UniProt Q5HYJ3) 0.035
FIP1L1 (UniProt Q6UN15) -0.038
FBXO22 (UniProt Q8NEZ5) -0.02
FAM91A1 (UniProt Q658Y4) -0.015
FKBP15 (UniProt Q5T1M5) -0.005
FKBP3 (UniProt Q00688) 0.021
FBXO7 (UniProt Q9Y3I1) -0.002
FDX2 (UniProt Q6P4F2) 0.016
FDFT1 (UniProt P37268) -0.047
FBXL20 (UniProt Q96IG2) -0.065
FKBPL (UniProt Q9UIM3) -0.016
FARS2 (UniProt O95363) 0.039
FBXO30 (UniProt Q8TB52) -0.011
FHL2 (UniProt Q14192) 0.007
FECH isoform 2 (UniProt P22830) 0.248
FAM50A (UniProt Q14320) 0.044
FBL (UniProt P22087) -0.097
FBLL1 (UniProt A6NHQ2) -0.197
FBXO3 (UniProt Q9UK99) -0.035
FN3KRP (UniProt Q9HA64) 0.006
FLVCR1 (UniProt Q9Y5Y0) 0.046
FAM8A1 (UniProt Q9UBU6) 0.262
FGFR1OP (UniProt O95684) 0.042
FKBP14 (UniProt Q9NWM8) 0.056
FGF13 isoform 3 (UniProt Q92913) -0.068
FBXO6 (UniProt Q9NRD1) -0.021
FKBP2 (UniProt P26885) 0.002
FAM32A (UniProt Q9Y421) -0.08
FDPS (UniProt P14324) 0.441
FNBP4 isoform 2 (UniProt Q8N3X1) -0.005
FAM98B (UniProt Q52LJ0) -0.013
FARSB (UniProt Q9NSD9) 0.012
FAM98A (UniProt Q8NCA5) -0.026
FAU (UniProt P62861) -0.199
FIS1 (UniProt Q9Y3D6) 0.07
FAM3C (UniProt Q92520) 0.056

Reference: the supplement of paper PMC10849652
